Reference: PubChem BioAssay AID1159584 (Peter MacCallum Cancer Centre, 2016)
The deposit covers about 18,000 reagents; shown is a random part of them. Further read-outs or replicates are left out here. No sequences are given here. Not stated in the record: the amount of reagent, the time to read-out.

Purpose: 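Genes that CDH1-null MCF10A cells selectively depend on to survive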 (primary screen)
Cells: human MCF10A breast epithelial cells, parental and CDH1-null
Reagent: siRNA against human genes
Measured: 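ATP luminescence (CellTiter-Glo) viability per line relative to mean mock wells over all plates, and the ratio of CDH1-null to parental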
Reading the numbers: CDH1-null / parental viability ratio: higher = CDH1-null cells survive relatively better than parental; CDH1-null viability vs mock: higher = more viable CDH1-null cells

| target gene | CDH1-null / parental viability ratio | CDH1-null viability vs mock (fraction of mock) |
| --- | --- | --- |
| PDS5B | 0.96 | 0.93 |
| USP17L2 | 1.19 | 0.93 |
| ST6GAL1 | 1.21 | 0.85 |
| TERB2 | 0.93 | 0.57 |
| RBP1 | 1.2 | 1.12 |
| MMP19 | 1.36 | 0.68 |
| PDHB | 0.98 | 0.58 |
| ATF4 | 1.01 | 0.8 |
| PCDH10 | 0.95 | 1.04 |
| STAT5A | 1.06 | 0.91 |
| OLFML2A | 0.88 | 0.53 |
| MTMR11 | 1.09 | 0.72 |
| PENK | 1.17 | 0.75 |
| SEC11C | 0.9 | 0.77 |
| CCDC134 | 0.72 | 0.42 |
| MAF | 0.96 | 0.96 |
| FGF19 | 1.08 | 0.95 |
| ARCN1 | 1.1 | 0.22 |
| INTS12 | 0.99 | 0.98 |
| NPHS2 | 0.84 | 0.74 |
| CUL2 | 1.4 | 0.7 |
| MYO5B | 1.1 | 1.1 |
| LSAMP | 1.11 | 0.62 |
| NUBP1 | 0.79 | 0.6 |
| MEIS3 | 0.9 | 0.76 |
| KLF11 | 0.96 | 1 |
| GRIK2 | 1.16 | 0.95 |
| WDR75 | 0.96 | 0.65 |
| UBE2G2 | 1.18 | 0.9 |
| ADAM32 | 0.93 | 0.7 |
| KHDC1 | 0.9 | 0.81 |
| RAB5C | 0.94 | 0.83 |
| GPR61 | 1.41 | 1 |
| APTX | 1.08 | 0.82 |
| CAMK2N2 | 0.81 | 0.7 |
| ZNF684 | 0.95 | 0.21 |
| CCPG1 | 1.2 | 0.72 |
| MAGIX | 0.81 | 0.46 |
| ANGPTL2 | 1.2 | 1.08 |
| ARHGAP28 | 1.62 | 0.91 |
| PIANP | 0.79 | 0.6 |
| TUB | 0.86 | 0.78 |
| ADCY6 | 0.9 | 0.9 |
| AREG | 1.07 | 0.88 |
| TTK | 1.04 | 0.72 |
| TRPV2 | 1.26 | 0.83 |

Copied from the list:
Result for OLFML2A in “CDH1-null / parental viability ratio”: 0.88
Under “CDH1-null viability vs mock (fraction of mock)”, KHDC1 shows 0.81
Entry for NUBP1 under “CDH1-null viability vs mock (fraction of mock)”: 0.6
TRPV2, CDH1-null viability vs mock (fraction of mock): 0.83
